Seven sequences from patent US20070117770 can be followed below.

Protein sequences, listed by entry. Tags and fused reporters are not part of them. Residues count along the entry.
UniProt P19338, 284-710: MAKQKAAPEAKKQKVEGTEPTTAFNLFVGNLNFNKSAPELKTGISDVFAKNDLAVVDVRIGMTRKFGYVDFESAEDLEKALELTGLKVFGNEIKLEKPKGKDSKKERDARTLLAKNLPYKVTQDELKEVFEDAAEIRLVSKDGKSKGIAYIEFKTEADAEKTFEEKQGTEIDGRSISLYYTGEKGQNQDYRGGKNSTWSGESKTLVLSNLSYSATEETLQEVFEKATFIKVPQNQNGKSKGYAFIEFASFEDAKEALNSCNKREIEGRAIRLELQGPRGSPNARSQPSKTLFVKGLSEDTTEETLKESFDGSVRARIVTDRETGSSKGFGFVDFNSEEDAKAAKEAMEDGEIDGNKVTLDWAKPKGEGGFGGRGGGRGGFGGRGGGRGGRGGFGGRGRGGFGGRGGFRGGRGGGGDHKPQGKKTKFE

The target of data set [1] is Nucleolin (MBP fusion, lacking N-terminal acidic stretches domain) (Homo sapiens) (UniProt P19338). As to the kind of experiment: EMSA. The following applies: purified recombinant protein; protein details: maltose binding protein (MBP) fusion; label: 32P; folded or branched DNA.
The target is the same in data set [2]. As to the kind of experiment: filter binding. Particulars: purified recombinant protein, protein details: maltose binding protein (MBP) fusion, label: 32P.

For some of these results: No signal at the amounts used counts as a negative. For some of these results: The comparison behind a weaker result is the experiment's own reference, which may not be listed here.

For GGGAGGGCGCGCGGGTCGGGG [8749NT], the binding result in data set [1] is “binds more weakly”.

For GGGAGGGGCACGGGCCGGGGGCGGGACGGG [7733T], in data set [1], the binding result is given as “binds more weakly”.

For GGGCTGGGTCGGTCGGGCTGGGG [10816NT], the Kd in data set [2] (60 mM KCl, 1 mM MgCl2, folded or branched DNA) was more than 30 nM.

Consider “GGGGCGCGGCGGGGGGAGAAGGGTCGGGGCGGCAGGGG [11028NT]”, for which, in data set [1], the binding result was “binds more weakly”.

GGGGGCGGGAACCCCCGGGCGCCTGTGGG [6374NT]: the binding result in data set [1] was “no binding”.

As to GGGTCGGGGGCGGTGGTGGGCCCGCGGGGG [6183NT], the binding result in data set [1] was “binds more weakly”.

On to GTCGTAACGTCGATCAGTTTACGACAT [RND27], for which the dissociation constant (Kd) in data set [2] (random single-stranded control, single-stranded DNA) was more than 30 nM.

What is called Kd is the equilibrium constant for the complex coming apart.
